These are yes or no findings as the source states them, for the method shown. Binding seen in cells or lysates may run through a third protein. Some binding calls cover weakened binding; strength is not graded here.

Protein sequences, listed by entry. Tags and fused reporters are not part of them.
UniProt O43516: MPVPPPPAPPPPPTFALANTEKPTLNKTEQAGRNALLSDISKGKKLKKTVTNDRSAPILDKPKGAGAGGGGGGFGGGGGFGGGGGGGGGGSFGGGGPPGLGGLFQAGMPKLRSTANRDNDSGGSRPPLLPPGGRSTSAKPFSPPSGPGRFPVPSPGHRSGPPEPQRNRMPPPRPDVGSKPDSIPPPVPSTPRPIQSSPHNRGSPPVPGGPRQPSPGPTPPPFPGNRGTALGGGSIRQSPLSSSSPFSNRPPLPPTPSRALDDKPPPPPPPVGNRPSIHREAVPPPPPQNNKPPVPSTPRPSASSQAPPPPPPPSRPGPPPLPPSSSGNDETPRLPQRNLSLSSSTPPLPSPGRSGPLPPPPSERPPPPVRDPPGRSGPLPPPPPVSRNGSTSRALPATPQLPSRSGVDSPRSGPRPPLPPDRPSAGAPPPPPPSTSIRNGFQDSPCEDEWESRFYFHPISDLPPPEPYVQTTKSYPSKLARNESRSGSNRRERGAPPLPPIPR
UniProt O43707: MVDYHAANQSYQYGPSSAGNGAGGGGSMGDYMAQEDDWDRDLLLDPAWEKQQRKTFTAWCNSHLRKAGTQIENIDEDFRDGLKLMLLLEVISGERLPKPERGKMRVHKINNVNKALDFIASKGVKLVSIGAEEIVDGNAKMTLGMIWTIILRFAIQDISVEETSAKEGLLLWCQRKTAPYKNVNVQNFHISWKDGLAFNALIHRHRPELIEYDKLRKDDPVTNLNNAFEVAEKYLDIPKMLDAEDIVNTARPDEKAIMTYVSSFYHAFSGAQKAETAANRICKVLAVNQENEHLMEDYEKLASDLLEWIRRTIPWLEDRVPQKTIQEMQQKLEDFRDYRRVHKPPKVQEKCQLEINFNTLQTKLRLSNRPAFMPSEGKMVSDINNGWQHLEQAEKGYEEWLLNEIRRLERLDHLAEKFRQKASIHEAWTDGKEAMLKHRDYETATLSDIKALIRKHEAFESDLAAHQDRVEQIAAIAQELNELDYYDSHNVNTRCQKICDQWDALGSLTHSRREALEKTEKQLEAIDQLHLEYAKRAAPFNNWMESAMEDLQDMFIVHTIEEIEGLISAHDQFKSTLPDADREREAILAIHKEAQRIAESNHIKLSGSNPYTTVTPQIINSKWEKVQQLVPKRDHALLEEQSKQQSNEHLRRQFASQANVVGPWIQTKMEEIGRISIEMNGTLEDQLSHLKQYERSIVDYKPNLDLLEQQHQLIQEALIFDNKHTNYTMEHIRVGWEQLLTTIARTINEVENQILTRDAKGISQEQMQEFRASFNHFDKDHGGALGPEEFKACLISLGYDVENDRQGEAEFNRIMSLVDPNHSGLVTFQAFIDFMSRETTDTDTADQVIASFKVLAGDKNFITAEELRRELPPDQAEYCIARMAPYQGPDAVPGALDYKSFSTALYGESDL

Data on 1 substance can be found in paper PMC12357052.

The experiment has as its target WAS/WASL interacting protein family member 1 (WIPF1), wild type, overexpressed (WIPF1-OE) (human) (UniProt O43516). As to the kind of experiment: co-IP; Lysate of HTR-8/SVneo cells overexpressing WIPF1 (WT or point mutant); IP with rabbit WIPF1 mAb at 4 °C overnight, protein A/G beads; blot with mouse ACTN4 mAb; rabbit or mouse IgG as negative control.

For the substance “alpha-actinin 4 (ACTN4) (from UniProt O43707 1-911)”, the binding result was “binds”.
